# Results from US6759238B1, “Multidrug resistance associated proteins and uses thereof” (priority 1999, dated 2004).
# What was measured:
# CEM-SS cells = experiment: Cytotoxicity assay (growth inhibition, Coulter counter); conditions: Homo sapiens, 48 h
# Procedure: […] Each result is the mean of one representative experiment performed in duplicate. The cultures with the purine nucleosides adenosine, 2′-deoxyadenosine, and arabinosyladenine contained 5 μM deoxycoformycin to inhibit adenosine deaminase activity.
# (§1) All assays were performed in 24-well tissue culture plates (Costar, Cambridge, Ma.). […] At the end of the incubation, the cell concentrations, sizes, and volumes were counted in a Coulter counter (Coulter Electronics, Hialeah. Fla.).
# CEM-r1 cells = experiment: as above
# Procedure: Selection for PMEA resistance was carried out by exposing CEM-SS cells in culture to increasing concentrations of PMEA, over several months.
# The IC50 values were obtained after 2 days of culture. Each result is the mean of one representative experiment performed in duplicate. The cultures with the purine nucleosides adenosine, 2′-deoxyadenosine, and arabinosyladenine contained 5 μM deoxycoformycin to inhibit adenosine deaminase activity.
# as §1
smiles,measurement,setting,value
COc1cc2c(c(OC)c1OC)-c1ccc(OC)c(=O)cc1[C@@H](NC(C)=O)CC2 [Colchicine],IC50,CEM-SS cells,14 nM
same,Relative Resistance,CEM-r1 cells; CEM-r1 vs CEM-SS (Table 3),˜1
same,IC50,"CEM-r1 cells; Homo sapiens, 48 h",13 nM
